Test results reported in patent US20110223157A1, “METHODS FOR THE TREATMENT OF NON-HODGKIN'S LYMPHOMAS USING LENALIDOMIDE, AND GENE AND PROTEIN BIOMARKERS AS A PREDICTOR” (priority 2010, published 2011).

System: DLBCL cells
Assay: Pearson 2-tailed correlation of antiproliferative activity of lenalidomide with baseline markers in DLBCL cells
Description: The correlation between the antiproliferative effect on DLBCL cells of lenalidomide at 1 μM, a clinical achievable concentration, and baseline NFκB p50 activity was determined by Pearson 2-tailed correlation analysis method. A significant (p<0.001) correlation was observed between antiproliferative activity of lenalidomide in these DLBCL cell lines and baseline levels of activity of NFκB, particularly the p50 subunit.

Measured: Correlation with antiproliferative activity of 1 mM lenalidomide

Nc1cccc2c1CN(C1CCC(=O)NC1=O)C2=O (stereo not shown) [lenalidomide, 3-(4-amino-1-oxo-1,3-dihydro-isoindol-2-yl)-piperidine-2,6-dione]
Correlated: Oncomine ABC scores | Oncomine NFkB Scores | baseline CARD11 gene expression | baseline IRF4 gene expression | baseline activity of NFkB subunit p50 | baseline activity of NFkB subunit p65
Not Correlated: baseline A20 gene expression | baseline SPIB gene expression | baseline cyclin D1 gene expression | baseline cyclin D3 gene expression
